Assay results published in patent US20150023989A1 (SEATTLE GENETICS, INC., priority 2011, published 2015).

Test: general procedure: solution-phase peptide synthesis; HATU/N,N-diisopropylethylamine; EDC/HOBt/N,N-diisopropylethylamine
Conditions: trifluoroacetate; for conjugation yield: conjugation step
[1] = late stage modification step, over 2 stages

Substance “N-(2-{2-[2-(2-aminoethoxy)ethoxy]ethoxy}ethyl)-N-methyl-L-valyl-N-[(3R,4S,5S)-3-methoxy-1-{(2S)-2-[(1R,2R)-1-methoxy-2-methyl-3-{[(1S,2R)-1-(1,2-oxazinan-2-ylcarbonyl)-2-phenyl cyclopropyl]amino}-3-oxopropyl]pyrrolidin-1-yl}-5-methyl-1-oxoheptan-4-yl]-N-methyl-L-valinamide” has a conjugation yield (over 2 stages) of 66%.

For “N-(2-{2-[2-(2-carboxyethoxy)ethoxy]ethoxy}ethyl)-N-methyl-L-valyl-N-[(3R,4S,5S)-1-{(2S)-2-[(1R,2R)-3-{[(2S)-1-amino-3-(1H-indol-3-yl)-1-oxopropan-2-yl]amino}-1-methoxy-2-methyl-3-oxopropyl]pyrrolidin-1-yl}-3-methoxy-5-methyl-1-oxoheptan-4-yl]-N-methyl-L-valinamide”, the step yield (late stage modification step) was 85%.

Work on “N-(4-{2-[6-(2,5-dioxo-2,5-dihydro-1H-pyrrol-1-yl)hexanoyl]-1-methylhydrazino}-4-oxobutyl)-N-methyl-L-valyl-N-[(3R,4S,5S)-3-methoxy-1-{(2S)-2-[(1R,2R)-1-methoxy-2-methyl-3-{[(1S,2R)-1-(1,2-oxazinan-2-ylcarbonyl)-2-phenylcyclopropyl]amino}-3-oxopropyl]pyrrolidin-1-yl}-5-methyl-1-oxoheptan-4-yl]-N-meth” yielded a conjugation yield of 30%.

Work on “N-(4-{2-[6-(2,5-dioxo-2,5-dihydro-1H-pyrrol-1-yl)hexanoyl]hydrazino}-4-oxobutyl)-N-methyl-L-valyl-N-[(3R,4S,5S)-1-{(2S)-2-[(1R,2R)-3-({(2S)-1-[benzyl(methyl)amino]-1-oxo-3-phenylpropan-2-yl}amino)-1-methoxy-2-methyl-3-oxopropyl]pyrrolidin-1-yl}-3-methoxy-5-methyl-1-oxoheptan-4-yl]-N-methyl-L-valinam” yielded a conjugation yield of 15%.

“N-(4-{2-[6-(2,5-dioxo-2,5-dihydro-1H-pyrrol-1-yl)hexanoyl]hydrazino}-4-oxobutyl)-N-methyl-L-valyl-N-[(3R,4S,5S)-1-{(2S)-2-[(1R,2R)-3-{[(1S,2R)-1-(ethoxycarbonyl)-2-phenylcyclopropyl]amino}-1-methoxy-2-methyl-3-oxopropyl]pyrrolidin-1-yl}-3-methoxy-5-methyl-1-oxoheptan-4-yl]-N-methyl-L-valinamide” gave a conjugation yield of 37%.

Work on “N-(4-{2-[6-(2,5-dioxo-2,5-dihydro-1H-pyrrol-1-yl)hexanoyl]hydrazino}-4-oxobutyl)-N-methyl-L-valyl-N-[(3R,4S,5S)-1-{(2S)-2-[(1R,2R)-3-{[(2S)-1-(benzylamino)-1-oxo-3-phenylpropan-2-yl]amino}-1-methoxy-2-methyl-3-oxopropyl]pyrrolidin-1-yl}-3-methoxy-5-methyl-1-oxoheptan-4-yl]-N-methyl-L-valinamide” yielded a conjugation yield of 53%.

“N-(4-{2-[6-(2,5-dioxo-2,5-dihydro-1H-pyrrol-1-yl)hexanoyl]hydrazino}-4-oxobutyl)-N-methyl-L-valyl-N-[(3R,4S,5S)-1-{(2S)-2-[(1R,2R)-3-{[(2S)-1-(benzylamino)-3-(1H-indol-3-yl)-1-oxopropan-2-yl]amino}-1-methoxy-2-methyl-3-oxopropyl]pyrrolidin-1-yl}-3-methoxy-5-methyl-1-oxoheptan-4-yl]-N-methyl-L-valina” gave a conjugation yield of 52%.

In the case of “N-(4-{2-[6-(2,5-dioxo-2,5-dihydro-1H-pyrrol-1-yl)hexanoyl]hydrazino}-4-oxobutyl)-N-methyl-L-valyl-N-[(3R,4S,5S)-1-{(2S)-2-[(1R,2R)-3-{[(2S)-1-(benzyloxy)-3-(1H-indol-3-yl)-1-oxopropan-2-yl]amino}-1-methoxy-2-methyl-3-oxopropyl]pyrrolidin-1-yl}-3-methoxy-5-methyl-1-oxoheptan-4-yl]-N-methyl-L-valinami”, the conjugation yield is reported as 58%.

For “N-(4-{2-[6-(2,5-dioxo-2,5-dihydro-1H-pyrrol-1-yl)hexanoyl]hydrazino}-4-oxobutyl)-N-methyl-L-valyl-N-[(3R,4S,5S)-1-{(2S)-2-[(1R,2R)-3-{[(2S)-1-amino-3-(1H-indol-3-yl)-1-oxopropan-2-yl]amino}-1-methoxy-2-methyl-3-oxopropyl]pyrrolidin-1-yl}-3-methoxy-5-methyl-1-oxoheptan-4-yl]-N-methyl-L-valinamide”, the conjugation yield was 33%.

In the case of “N-(4-{2-[6-(2,5-dioxo-2,5-dihydro-1H-pyrrol-1-yl)hexanoyl]hydrazino}-4-oxobutyl)-N-methyl-L-valyl-N-[(3R,4S,5S)-3-methoxy-1-{(2S)-2-[(1R,2R)-1-methoxy-2-methyl-3-oxo-3-{[(1S,2R)-2-phenyl-1-(propylcarbamoyl)cyclopropyl]amino}propyl]pyrrolidin-1-yl}-5-methyl-1-oxoheptan-4-yl]-N-methyl-L-valinamide”, the conjugation yield is reported as 22%.

Substance “N-(6-aminohexyl)-N-methyl-L-valyl-N-[(3R,4S,5S)-1-{(2S)-2-[(1R,2R)-3-{[(1S,2R)-1-(1,4-dihydro-3H-2,3-benzoxazin-3-ylcarbonyl)-2-phenylcyclopropyl]amino}-1-methoxy-2-methyl-3-oxopropyl]pyrrolidin-1-yl}-3-methoxy-5-methyl-1-oxoheptan-4-yl]-N-methyl-L-valinamide” has a step yield [1] of 23%.

Substance “N-(6-aminohexyl)-N-methyl-L-valyl-N-[(3R,4S,5S)-3-methoxy-1-{(2S)-2-[(1R,2R)-1-methoxy-2-methyl-3-{[(2S,3S)-1-(1,2-oxazinan-2-yl)-1-oxo-3-phenylbutan-2-yl]amino}-3-oxopropyl]pyrrolidin-1-yl}-5-methyl-1-oxoheptan-4-yl]-N-methyl-L-valinamide” has a step yield [1] of 63%.

“N-(6-{2-[6-(2,5-dioxo-2,5-dihydro-1H-pyrrol-1-yl)hexanoyl]hydrazino}-6-oxohexyl)-N-methyl-L-valyl-N-[(3R,4S,5S)-1-{(2S)-2-[(1R,2R)-3-{[(2S)-1-amino-3-(1H-indol-3-yl)-1-oxopropan-2-yl]amino}-1-methoxy-2-methyl-3-oxopropyl]pyrrolidin-1-yl}-3-methoxy-5-methyl-1-oxoheptan-4-yl]-N-methyl-L-valinamide” showed a conjugation yield of 16%.

Substance “N-(6-{[4-(2,5-dioxo-2,5-dihydro-1H-pyrrol-1-yl)butanoyl]amino}hexyl)-N-methyl-L-valyl-N-[(3R,4S,5S)-3-methoxy-1-{(2S)-2-[(1R,2R)-1-methoxy-2-methyl-3-{[(2S,3S)-1-(1,2-oxazinan-2-yl)-1-oxo-3-phenylbutan-2-yl]amino}-3-oxopropyl]pyrrolidin-1-yl}-5-methyl-1-oxoheptan-4-yl]-N-methyl-L-valinamide” has a conjugation yield of 56%.

Substance “N-[1-(2,5-dioxo-2,5-dihydro-1H-pyrrol-1-yl)-12,15-dioxo-3,6,9-trioxa-13,14-diazaoctadecan-18-yl]-N-methyl-L-valyl-N-[(3R,4S,5S)-3-methoxy-1-{(2S)-2-[(1R,2R)-1-methoxy-2-methyl-3-{[(2S)-1-(1,2-oxazinan-2-yl)-1-oxo-3-phenylpropan-2-yl]amino}-3-oxopropyl]pyrrolidin-1-yl}-5-methyl-1-oxoheptan-4-yl]-N-me” has a conjugation yield of 51%.

“N-[2-(2-{2-[2-(2,5-dioxo-2,5-dihydro-1H-pyrrol-1-yl)ethoxy]ethoxy}ethoxy)ethyl]-N-methyl-L-valyl-N-[(3R,4S,5S)-3-methoxy-1-{(2S)-2-[(1R,2R)-1-methoxy-2-methyl-3-{[(1S,2R)-1-(1,2-oxazinan-2-ylcarbonyl)-2-phenylcyclopropyl]amino}-3-oxopropyl]pyrrolidin-1-yl}-5-methyl-1-oxoheptan-4-yl]-N-methyl-L-valin” gave a step yield (late stage modification step) of 23%.

“N-[3-(2,5-dioxo-2,5-dihydro-1H-pyrrol-1-yl)propyl]-N-methyl-L-valyl-N-[(3R,4S,5S)-3-methoxy-1-{(2S)-2-[(1R,2R)-1-methoxy-2-methyl-3-{[(1S,2R)-1-(1,2-oxazinan-2-ylcarbonyl)-2-phenyl cyclopropyl]amino}-3-oxopropyl]pyrrolidin-1-yl}-5-methyl-1-oxoheptan-4-yl]-N-methyl-L-valinamide” showed a step yield (late stage modification step) of 32%.

“N-[4-({1-[4-(2,5-dioxo-2,5-dihydro-1H-pyrrol-1-yl)butanoyl]piperidin-4-yl}oxy)-4-oxobutyl]-N-methyl-L-valyl-N-[(3R,4S,5S)-3-methoxy-1-{(2S)-2-[(1R,2R)-1-methoxy-2-methyl-3-{[(1S,2R)-1-(1,2-oxazinan-2-ylcarbonyl)-2-phenylcyclopropyl]amino}-3-oxopropyl]pyrrolidin-1-yl}-5-methyl-1-oxoheptan-4-yl]-N-met” showed a conjugation yield of 34%.

For “N-[4-({(2R)-1-[(2,5-dioxopyrrolidin-1-yl)oxy]-4-methyl-1-oxopentan-2-yl}amino)-4-oxobutyl]-N-methyl-L-valyl-N-[(3R,4S,5S)-1-{(2S)-2-[(1R,2R)-3-{[(2S)-1-(benzylamino)-1-oxo-3-phenylpropan-2-yl]amino}-1-methoxy-2-methyl-3-oxopropyl]pyrrolidin-1-yl}-3-methoxy-5-methyl-1-oxoheptan-4-yl]-N-methyl-L-valin”, the difficulty met (late stage modification step) was “some of which was hydrolysed to the reactant”.

Work on “N-[6-(2,5-dioxo-2,5-dihydro-1H-pyrrol-1-yl)hexyl]-N-methyl-L-valyl-N-[(3R,4S,5S)-1-{(2S)-2-[(1R,2R)-3-{[(1S,2R)-1-(1,4-dihydro-3H-2,3-benzoxazin-3-ylcarbonyl)-2-phenylcyclopropyl]amino}-1-methoxy-2-methyl-3-oxopropyl]pyrrolidin-1-yl}-3-methoxy-5-methyl-1-oxoheptan-4-yl]-N-methyl-L-valinamide” yielded a step yield (late stage modification step) of 21%.

Substance “N-methyl-L-valyl-N-[(3R,4S,5S)-1-{(2S)-2-[(1R,2R)-3-{[(1S,2R)-1-(1,4-dihydro-3H-2,3-benzoxazin-3-ylcarbonyl)-2-phenylcyclopropyl]amino}-1-methoxy-2-methyl-3-oxopropyl]pyrrolidin-1-yl}-3-methoxy-5-methyl-1-oxoheptan-4-yl]-N-methyl-L-valinamide trifluoroacetate” has a step yield (late stage modification step) of 92%.
